Consider 7 substances from article PMC8211825.

By UniProt entry, the sequences of proteins in these tests, tags left out. Where a name states a change or a piece, a line headed by the entry shows the natural chain unless it says otherwise. Chains listed by the source or under a name are the forms on record and can include a tag or linker. Residues count along the entry.
C1q-like domain of otolin-1 from human (A6NHN0, residues 338-473): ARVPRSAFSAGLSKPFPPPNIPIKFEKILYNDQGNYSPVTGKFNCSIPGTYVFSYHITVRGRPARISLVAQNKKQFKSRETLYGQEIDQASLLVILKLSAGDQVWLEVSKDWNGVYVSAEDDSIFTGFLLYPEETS
hOtolC1q D425A (A6NHN0, form named): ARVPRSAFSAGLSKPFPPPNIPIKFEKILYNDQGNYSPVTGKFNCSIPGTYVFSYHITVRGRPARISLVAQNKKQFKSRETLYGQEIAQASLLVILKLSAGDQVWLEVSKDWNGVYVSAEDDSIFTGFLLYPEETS
hOtolC1q E417A (A6NHN0, form named): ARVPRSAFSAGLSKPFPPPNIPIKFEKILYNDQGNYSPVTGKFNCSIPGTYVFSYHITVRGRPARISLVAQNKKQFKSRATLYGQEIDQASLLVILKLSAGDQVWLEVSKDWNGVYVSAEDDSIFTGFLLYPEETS
hOtolC1q E417A D425A (A6NHN0, form named): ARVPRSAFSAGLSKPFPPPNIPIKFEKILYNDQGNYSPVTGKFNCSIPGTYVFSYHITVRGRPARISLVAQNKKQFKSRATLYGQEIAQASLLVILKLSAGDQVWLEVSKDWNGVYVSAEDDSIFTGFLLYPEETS
hOtolC1q E470A (A6NHN0, form named): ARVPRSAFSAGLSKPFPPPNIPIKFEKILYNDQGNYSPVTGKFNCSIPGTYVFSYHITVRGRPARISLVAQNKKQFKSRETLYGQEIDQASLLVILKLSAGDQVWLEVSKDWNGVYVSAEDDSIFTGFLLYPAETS
C1q-like domain of otolin-1 from zebrafish (A5PN28, residues 351-488): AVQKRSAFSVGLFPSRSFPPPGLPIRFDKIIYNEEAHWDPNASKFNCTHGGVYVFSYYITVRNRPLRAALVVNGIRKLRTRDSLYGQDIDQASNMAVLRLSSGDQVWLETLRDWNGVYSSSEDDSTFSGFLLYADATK
dOtolC1q D432A (A5PN28, form named): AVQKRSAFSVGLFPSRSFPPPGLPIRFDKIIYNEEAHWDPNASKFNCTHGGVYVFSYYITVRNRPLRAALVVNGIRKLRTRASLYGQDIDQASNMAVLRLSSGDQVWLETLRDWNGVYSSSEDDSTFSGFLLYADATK

One assay concerns the target hOtolC1q D425A (human) (UniProt A6NHN0). As to the kind of experiment: AUC; sedimentation velocity, c(s) analysis in SEDFIT; 10 mM CaCl2; 10 mM HEPES pH 7.0, 500 mM NaCl, 5% glycerol; 20 °C, 50,000 rpm; protein about 0.1, 0.25 and 0.5 mg/ml; self-association of the gC1q domain into trimers; both purified.
In assay [1] the target is C1q-like domain of otolin-1 from human (human) (UniProt A6NHN0). The assay can be described thus: AUC; sedimentation velocity, c(s) analysis in SEDFIT; 1 mM EDTA (no Ca2+); 10 mM HEPES pH 7.0, 500 mM NaCl, 5% glycerol; 20 °C, 50,000 rpm; protein about 0.1, 0.25 and 0.5 mg/ml; self-association of the gC1q domain into trimers; both purified.
The target in the next assay is hOtolC1q E417A (human) (UniProt A6NHN0). The assay can be described thus: AUC; sedimentation velocity, c(s) analysis in SEDFIT; 10 mM CaCl2; 10 mM HEPES pH 7.0, 500 mM NaCl, 5% glycerol; 20 °C, 50,000 rpm; protein about 0.1, 0.25 and 0.5 mg/ml; self-association of the gC1q domain into trimers; both purified.
Assay [2] concerns the target hOtolC1q E417A D425A (human) (UniProt A6NHN0). The assay is described as above.
For assay [3], the target named is C1q-like domain of otolin-1 from zebrafish (zebrafish (Danio rerio)) (UniProt A5PN28). The assay can be described thus: AUC; sedimentation velocity, c(s) analysis in SEDFIT; 1 mM EDTA (no Ca2+); 10 mM HEPES pH 7.0, 500 mM NaCl, 5% glycerol; 20 °C, 50,000 rpm; protein about 0.1, 0.25 and 0.5 mg/ml; self-association of the gC1q domain into trimers; both purified.
For assay [4], the target named is dOtolC1q D432A (zebrafish (Danio rerio)) (UniProt A5PN28). Described as above.
The target is the same in assay [5]. The assay can be described thus: AUC; sedimentation velocity, c(s) analysis in SEDFIT; 10 mM CaCl2; 10 mM HEPES pH 7.0, 500 mM NaCl, 5% glycerol; 20 °C, 50,000 rpm; protein about 0.1, 0.25 and 0.5 mg/ml; self-association of the gC1q domain into trimers; both purified.
The target of a further assay is hOtolC1q E470A (human) (UniProt A6NHN0). As to the kind of experiment: AUC; sedimentation velocity, c(s) analysis in SEDFIT; 1 mM EDTA (no Ca2+); 10 mM HEPES pH 7.0, 500 mM NaCl, 5% glycerol; 20 °C, 50,000 rpm; protein about 0.1, 0.25 and 0.5 mg/ml; self-association of the gC1q domain into trimers; both purified.

Results are given in words; binding and its absence hold for the method and conditions named. Some binding calls cover weakened binding; strength is not graded here.

Consider “hOtolC1q D425A (from UniProt A6NHN0 338-473) (domain or fragment)”, for which, in the assay with hOtolC1q D425A (human), the binding entry is “binds”.

With “C1q-like domain of otolin-1 from human (from UniProt A6NHN0 338-473) (domain or fragment)”, the binding result in assay [1] is listed as “binds weakly”.

As to “hOtolC1q E417A (from UniProt A6NHN0 338-473) (domain or fragment)”, the binding result with hOtolC1q E417A (human) is listed as “binds”.

On to “hOtolC1q E417A D425A (from UniProt A6NHN0 338-473) (domain or fragment)”, for which the binding result in assay [2] is recorded as “binds”.

With “C1q-like domain of otolin-1 from zebrafish (from UniProt A5PN28 351-488) (domain or fragment)”, the binding entry in assay [3] is given as “binds weakly”.

As to “dOtolC1q D432A (from UniProt A5PN28 351-488) (domain or fragment)”, the binding result in assay [4] and in assay [5] was “binds weakly” in each case.

Consider “hOtolC1q E470A (from UniProt A6NHN0 338-473) (domain or fragment)”, for which the binding entry with hOtolC1q E470A (human) is on record as “binds weakly”.
